Laboratory results from patent US20110311551A1 (INSERM, published 2011).
Results are given in words; binding and its absence hold for the method and conditions named. For some of these results: Binding can be weak; no strength is given.

Assays:
[1] = target: E1E2 non covalently-linked mature complex (recombinant, co-expressed in HepG2 cells) (Hepatitis C virus); assay: immunoprecipitation, vaccinia virus recombinants in HepG2 cells
[2] = target: E1E2 non covalently-linked mature complex (recombinant, co-expressed in HepG2 cells) (Hepatitis C virus); assay: immunoprecipitation, SDS-PAGE under non-reducing conditions
[3] = target: γ-chains of immunoglobulins (Ig); assay: EIA
[4] = target: µ-chains of immunoglobulins (Ig); assay: EIA

B1: monoclonal antibody D32.10 (antibody, V domains shown)
VH: EVQLQQSGAELVKPGASVKLSCTPSGFNIKDTYIHWVKQRPEQGLEWIGMINPANGNSNYDPKFQDKATITADTSSNTAYLQLSSLTSEDTAVYYCAEITTDFDVWGAGTTVTVSS
VL: NIVLTQSPPSLAVSLGQRATISCRASESVDSYGNSFLHWYQQKSGQPPKLLIYLASNLESGVPARFSGSGSRTDFTLTIDPLEADDAATYYCQQNNEAPFTFGSGTKLEIKR
notes: also called mAb D32.10; MAb D32.10
- binding [1]: binds
- binding [2]: binds
- binding [3]: no binding
- binding [4]: no binding
